Source: US6703362
These are yes or no findings as the source states them, for the method shown. Some binding calls cover weakened binding; strength is not graded here.

Sequences of proteins named here, by UniProt entry; tags and fusion partners are left off. A change or cut given only in a name is not applied to a line headed by its entry.
UniProt P14410: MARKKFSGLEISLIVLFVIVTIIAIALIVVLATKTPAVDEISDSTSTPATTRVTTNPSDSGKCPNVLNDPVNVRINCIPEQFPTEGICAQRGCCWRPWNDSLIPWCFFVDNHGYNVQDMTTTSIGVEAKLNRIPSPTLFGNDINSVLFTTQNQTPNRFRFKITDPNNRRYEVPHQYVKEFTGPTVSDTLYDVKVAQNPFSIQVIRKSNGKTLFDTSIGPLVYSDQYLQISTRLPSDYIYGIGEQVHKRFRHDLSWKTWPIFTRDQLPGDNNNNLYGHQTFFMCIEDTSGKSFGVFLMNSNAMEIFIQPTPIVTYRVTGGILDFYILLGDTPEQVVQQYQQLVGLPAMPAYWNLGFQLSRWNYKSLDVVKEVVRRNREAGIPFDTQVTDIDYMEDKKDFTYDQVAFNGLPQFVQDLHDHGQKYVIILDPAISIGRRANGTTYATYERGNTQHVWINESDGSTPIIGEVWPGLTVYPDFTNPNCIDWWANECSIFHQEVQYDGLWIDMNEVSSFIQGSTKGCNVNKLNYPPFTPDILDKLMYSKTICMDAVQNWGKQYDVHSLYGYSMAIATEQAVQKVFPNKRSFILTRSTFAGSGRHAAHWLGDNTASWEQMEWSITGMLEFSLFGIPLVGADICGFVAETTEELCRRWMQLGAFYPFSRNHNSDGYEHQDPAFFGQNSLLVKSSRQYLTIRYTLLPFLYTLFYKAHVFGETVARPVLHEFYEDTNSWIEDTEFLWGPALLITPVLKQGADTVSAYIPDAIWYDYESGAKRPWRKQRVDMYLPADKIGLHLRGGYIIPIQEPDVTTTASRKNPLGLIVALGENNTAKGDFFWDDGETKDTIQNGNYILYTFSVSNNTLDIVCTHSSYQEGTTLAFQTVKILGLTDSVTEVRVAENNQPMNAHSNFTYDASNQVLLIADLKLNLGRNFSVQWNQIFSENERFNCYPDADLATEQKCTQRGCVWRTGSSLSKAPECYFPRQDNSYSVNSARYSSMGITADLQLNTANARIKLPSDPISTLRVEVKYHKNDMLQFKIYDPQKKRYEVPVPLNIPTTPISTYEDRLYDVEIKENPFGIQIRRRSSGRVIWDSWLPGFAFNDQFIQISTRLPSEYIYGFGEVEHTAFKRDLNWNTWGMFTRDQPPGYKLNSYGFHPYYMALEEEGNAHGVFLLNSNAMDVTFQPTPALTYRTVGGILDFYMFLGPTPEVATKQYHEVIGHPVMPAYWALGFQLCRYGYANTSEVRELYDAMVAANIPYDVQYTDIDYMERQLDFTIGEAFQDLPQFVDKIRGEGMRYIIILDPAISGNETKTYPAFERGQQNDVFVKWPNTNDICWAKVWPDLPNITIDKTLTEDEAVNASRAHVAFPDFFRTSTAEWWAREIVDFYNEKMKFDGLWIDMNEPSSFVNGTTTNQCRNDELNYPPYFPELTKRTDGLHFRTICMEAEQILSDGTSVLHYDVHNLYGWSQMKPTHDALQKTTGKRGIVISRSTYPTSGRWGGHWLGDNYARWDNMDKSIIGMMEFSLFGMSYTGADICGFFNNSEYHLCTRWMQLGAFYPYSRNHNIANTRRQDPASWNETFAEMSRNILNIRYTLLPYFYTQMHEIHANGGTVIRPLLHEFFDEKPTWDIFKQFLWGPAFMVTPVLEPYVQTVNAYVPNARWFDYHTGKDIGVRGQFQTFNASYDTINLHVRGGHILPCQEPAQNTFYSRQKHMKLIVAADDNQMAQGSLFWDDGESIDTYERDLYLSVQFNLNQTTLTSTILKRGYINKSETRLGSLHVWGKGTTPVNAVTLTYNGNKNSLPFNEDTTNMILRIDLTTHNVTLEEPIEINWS
UniProt P69168: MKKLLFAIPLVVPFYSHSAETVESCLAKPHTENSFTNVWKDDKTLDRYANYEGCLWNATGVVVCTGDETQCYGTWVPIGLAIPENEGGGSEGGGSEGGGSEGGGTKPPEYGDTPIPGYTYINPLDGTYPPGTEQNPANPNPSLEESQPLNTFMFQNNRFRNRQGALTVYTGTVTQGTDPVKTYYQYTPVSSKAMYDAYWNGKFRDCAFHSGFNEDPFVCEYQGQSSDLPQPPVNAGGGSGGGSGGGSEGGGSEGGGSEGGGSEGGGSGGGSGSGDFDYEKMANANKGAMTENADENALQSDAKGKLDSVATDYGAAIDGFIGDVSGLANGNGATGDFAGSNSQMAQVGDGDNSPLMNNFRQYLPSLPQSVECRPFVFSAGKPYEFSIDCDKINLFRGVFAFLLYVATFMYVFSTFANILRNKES

Target: hSI receptor domain (human sucrase-isomaltase complex, amino acid residues 272-667), His-tag fusion protein (human) (UniProt P14410)
Experiment: phage panning and ELISA on hSI domain; listed under hSI in Table 7

binding: binds
Substance: SNiAX4 (from UniProt P69168 19-424) (peptide)
